PubChem BioAssay AID686943, Drosophila RNAi Screening Center, 2013
The deposit covers about 23,000 reagents; below is a random part of those that have a named target and a result. 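Extra replicates exist only for a retested subset of genes; insulin dose and duration not given; both raised and lowered dpERK matter.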 Further read-outs or replicates are left out here. The record does not give: the amount of reagent, the time to read-out.

Purpose: 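Knockdowns that increase or decrease active ERK after insulin receptor stimulation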 (primary screen)
Cell system: Drosophila S2R+ haemocyte-like cells expressing YFP-tagged ERK (Rolled)
Reagents: long dsRNA against Drosophila genes
Treatment: insulin stimulation versus unstimulated cells; dose and duration not given
Measured: 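Antibody staining for doubly phosphorylated ERK divided by ERK-YFP signal, as plate z-scores, in insulin-treated and untreated cells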
Direction: replicate 1, z-score of dpERK with insulin and replicate 2, z-score of dpERK with insulin: higher = more active ERK per ERK-YFP after insulin; replicate 1, z-score of dpERK under basal conditions: higher = more basal active ERK per ERK-YFP

| target | DRSC id | replicate 1, z-score of dpERK with insulin | replicate 2, z-score of dpERK with insulin | replicate 1, z-score of dpERK under basal conditions |
| --- | --- | --- | --- | --- |
| AP-1gamma | DRSC18433 | 0.33 | 0.6 | 0.76 |
| CG12310 | DRSC09878 | -0.35 | -0.26 | -0.48 |
| CG15760 | DRSC19725 | 0.81 | 1.83 | 2.34 |
| UBL3 | DRSC20298 | -2.09 | -0.63 | -0.86 |
| CG11396 | DRSC11654 | 0.16 | 1.09 | -0.45 |
| Nnf1b | DRSC22080 | -0.56 | -1.94 | -0.64 |
| Snx17 | DRSC02884 | 0.45 | 1.67 | 0.01 |
| by | DRSC16482 | -0.45 | -0.8 | 0.78 |
| eIF4E3 | DRSC10952 | -0.05 | -0.13 | 0.5 |
| CG12715 | DRSC19492 | 0.49 | 0.63 | 0.09 |
| Nagk | DRSC15994 | 0.38 | 0.03 | -0.84 |
| CG5597 | DRSC04517 | 0.43 | -0.3 | 0.35 |

Part of the list above in another layout:
eIF4E3 [DRSC10952]
- replicate 1, z-score of dpERK with insulin: -0.05
- replicate 2, z-score of dpERK with insulin: -0.13
- replicate 1, z-score of dpERK under basal conditions: 0.5

CG12715 [DRSC19492]
- replicate 1, z-score of dpERK with insulin: 0.49
- replicate 2, z-score of dpERK with insulin: 0.63
- replicate 1, z-score of dpERK under basal conditions: 0.09

The listing continues.
| target | DRSC id | replicate 1, z-score of dpERK with insulin | replicate 2, z-score of dpERK with insulin | replicate 1, z-score of dpERK under basal conditions |
| --- | --- | --- | --- | --- |
| CG14478 | DRSC06450 | 0.98 | 0.65 | 0.82 |
| TrpRS-m | DRSC10848 | -0.74 | -0.18 | -0.18 |
| CG14420 | DRSC17917 | 2.5 | 2.41 | 0.66 |
| CG34447 | DRSC00741 | 0.79 | 0.87 | 0.37 |
| CG32486 | DRSC08413 | -0.18 | -0.02 | -1.4 |
| CG32486 | DRSC08488 | -0.85 | -1.12 | -0.88 |
| CG17652 | DRSC00511 | 0.69 | 1.26 | 0.9 |
| Cad96Cb | DRSC14243 | -2.17 | 0 | -0.79 |
| Cad96Cb | DRSC14665 | -0.06 | 0.21 | 1.63 |
| CG13127 | DRSC02223 | -0.23 | 0.52 | 0.37 |
| cas | DRSC12373 | -0.04 | -0.25 | -0.5 |
